The record followed here is PMC12214887.

Chains of the proteins cited; added tags and fusions are not shown.
UniProt P59676: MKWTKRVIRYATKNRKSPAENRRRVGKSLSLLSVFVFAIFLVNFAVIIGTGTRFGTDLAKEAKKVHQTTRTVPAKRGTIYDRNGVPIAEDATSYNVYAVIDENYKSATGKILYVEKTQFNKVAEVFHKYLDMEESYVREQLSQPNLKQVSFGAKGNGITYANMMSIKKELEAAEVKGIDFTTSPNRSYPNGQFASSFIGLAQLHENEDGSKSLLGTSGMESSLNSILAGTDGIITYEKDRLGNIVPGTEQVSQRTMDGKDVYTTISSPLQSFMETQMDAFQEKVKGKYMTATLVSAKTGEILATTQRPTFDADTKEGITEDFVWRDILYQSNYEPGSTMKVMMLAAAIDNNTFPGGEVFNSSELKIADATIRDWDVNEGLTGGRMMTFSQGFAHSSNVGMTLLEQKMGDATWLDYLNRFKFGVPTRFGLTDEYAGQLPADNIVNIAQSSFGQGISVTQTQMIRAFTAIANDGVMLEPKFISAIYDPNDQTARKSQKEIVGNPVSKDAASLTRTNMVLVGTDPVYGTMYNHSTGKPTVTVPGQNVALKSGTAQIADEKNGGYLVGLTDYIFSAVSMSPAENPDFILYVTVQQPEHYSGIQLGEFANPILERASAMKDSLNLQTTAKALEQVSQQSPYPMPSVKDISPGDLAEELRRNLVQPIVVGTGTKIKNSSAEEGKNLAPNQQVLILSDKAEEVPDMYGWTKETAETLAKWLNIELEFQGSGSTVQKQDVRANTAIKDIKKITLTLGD

The target of experiment [1] is FtsW-SmBit (Streptococcus pneumoniae). Briefly: split reporter; split-luciferase complementation (LgBit/SmBit) in living S. pneumoniae cells 15 min after competence induction with CSP1 at 37 °C; NanoGlo substrate, luminescence in a plate reader.
For experiment [2], the target named is T1, mNeonGreen-DivIB (Streptococcus pneumoniae) (UniProt Q8DQM0).
T1 sequence: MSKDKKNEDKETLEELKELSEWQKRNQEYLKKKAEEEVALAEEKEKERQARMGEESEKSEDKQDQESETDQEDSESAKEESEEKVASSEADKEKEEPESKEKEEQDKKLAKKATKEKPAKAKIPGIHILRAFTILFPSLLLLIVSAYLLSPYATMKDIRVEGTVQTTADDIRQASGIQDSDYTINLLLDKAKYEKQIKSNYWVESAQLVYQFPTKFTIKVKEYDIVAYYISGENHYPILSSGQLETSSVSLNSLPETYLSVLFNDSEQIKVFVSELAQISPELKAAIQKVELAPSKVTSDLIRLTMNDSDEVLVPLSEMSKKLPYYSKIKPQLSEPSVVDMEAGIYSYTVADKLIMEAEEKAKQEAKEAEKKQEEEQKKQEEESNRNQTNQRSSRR
Briefly: co-IP; non-crosslinked; membranes solubilized with 0.6% Igepal CA-630 in Buffer B (150 mM NaCl, 10 mM Tris-HCl pH8); mNeonGreen-Trap magnetic agarose beads, 6 h at 4 °C; immunoblot with anti-ALFA or anti-HaloTag antibodies; competent (15 min after CSP) or non-competent cultures. (In general: A western blot detects proteins with antibodies after separation by electrophoresis.)

Experiment [3] has as its target LgBit-ComM (Streptococcus pneumoniae). Briefly: split reporter; split-luciferase complementation (LgBit/SmBit) in living S. pneumoniae cells 15 min after competence induction with CSP1 at 37 °C; NanoGlo substrate, luminescence in a plate reader.

These are yes or no findings as the source states them, for the method shown. Binding seen in cells or lysates may run through a third protein. A result given as binding can be weak or reduced; the word gives no strength.

As to LgBit-PBP2x (from UniProt P59676 1-750), the binding entry in experiment [1] is “binds”.

Consider ALFA-ComM (from UniProt A0ACD7PTF6), for which the binding result in experiment [2] is recorded as “binds”.

As for SmBit-PBP2x (from UniProt P59676 1-750), the binding result in experiment [3] is “no binding”.

B1: SmBit-DivIB (protein, UniProt Q8DQM0 1-396)
chain: T1 sequence
For the molecule B1, the binding result in experiment [3] is listed as “binds”.

B2: DprA-SmBit (protein, UniProt Q8DPI7 1-282)
chain: MKITNYEIYKLKKSGLTNQQILKVLEYGENVDQELLLGDIADISGCRNPAVFMERYFQIDDAHLSKEFQKFPSFSILDDCYPWDLSEIYDAPVLLFYKGNLDLLKFPKVAVVGSRACSKQGAKSVEKVIQGLENELVIVSGLAKGIDTAAHMAALQNGGKTIAVIGTGLDVFYPKANKRLQDYIGNDHLVLSEYGPGEQPLKFHFPARNRIIAGLCRGVIVAEAKMRSGSLITCERAMEEGRDVFAIPGSILDGLSDGCHHLIQEGAKLVTSGQDVLAEFEF
As to B2, the binding entry in experiment [3] was “no binding”.
